No constants are given. Whether binding was seen depends on the method and setting. Some entries that bind do so weakly or less than the wild type.
Biological target: α-subunit of mature human C-P4H-I (human) (UniProt P13674)
Experiment: co-purification; His6-tagged α-subunit coexpressed with untagged β/PDI in E. coli (CyDisCo); Talon IMAC from the lysate, HiTrap Q, Superdex 200, 4 °C, Tris pH 7.8; subunits found in the purified sample by SDS-PAGE and MS

By UniProt entry, the sequences of proteins in these tests, tags left out. Where a name states a change or a piece, a line headed by the entry shows the natural chain unless it says otherwise. Residues count along the entry.
UniProt P13674, residues 18-534: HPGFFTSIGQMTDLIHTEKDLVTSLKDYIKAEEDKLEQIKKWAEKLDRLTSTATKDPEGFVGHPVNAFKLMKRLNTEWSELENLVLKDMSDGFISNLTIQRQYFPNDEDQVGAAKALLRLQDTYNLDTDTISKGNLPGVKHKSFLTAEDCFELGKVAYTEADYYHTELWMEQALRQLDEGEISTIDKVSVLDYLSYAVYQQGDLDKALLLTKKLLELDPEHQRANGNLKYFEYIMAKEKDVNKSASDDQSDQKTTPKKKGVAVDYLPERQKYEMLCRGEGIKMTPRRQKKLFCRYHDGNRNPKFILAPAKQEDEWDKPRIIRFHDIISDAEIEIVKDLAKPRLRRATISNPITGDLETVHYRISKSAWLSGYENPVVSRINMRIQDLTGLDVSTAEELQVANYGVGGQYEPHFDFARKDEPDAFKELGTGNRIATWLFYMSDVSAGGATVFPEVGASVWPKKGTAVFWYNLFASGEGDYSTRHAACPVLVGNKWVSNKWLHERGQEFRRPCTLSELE
UniProt P07237, residues 18-508: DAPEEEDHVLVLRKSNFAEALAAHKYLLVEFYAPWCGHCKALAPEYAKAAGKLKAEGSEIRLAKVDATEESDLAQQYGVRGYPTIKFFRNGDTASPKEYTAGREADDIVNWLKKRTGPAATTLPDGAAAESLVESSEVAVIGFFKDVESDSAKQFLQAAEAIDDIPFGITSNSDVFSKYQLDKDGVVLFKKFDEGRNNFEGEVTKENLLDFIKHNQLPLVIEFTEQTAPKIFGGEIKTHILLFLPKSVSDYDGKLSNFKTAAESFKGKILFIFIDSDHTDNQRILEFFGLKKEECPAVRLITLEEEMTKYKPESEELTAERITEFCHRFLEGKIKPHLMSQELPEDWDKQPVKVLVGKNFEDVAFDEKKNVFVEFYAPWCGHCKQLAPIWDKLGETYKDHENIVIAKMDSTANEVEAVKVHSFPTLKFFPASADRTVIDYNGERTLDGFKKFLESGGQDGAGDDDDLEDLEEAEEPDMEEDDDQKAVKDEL

binding: binds
Substance: protein disulfide isomerase, the β-subunit of C-P4H (from UniProt P07237 18-508) (enzyme)

Source: publication PMC9676403
